Reference: the supplement of paper PMC10849652
Some of the results follow.

By UniProt entry, the sequences of proteins in these tests, tags left out. Where a name states a change or a piece, a line headed by the entry shows the natural chain unless it says otherwise.
UniProt O43617, whole entry, looked up: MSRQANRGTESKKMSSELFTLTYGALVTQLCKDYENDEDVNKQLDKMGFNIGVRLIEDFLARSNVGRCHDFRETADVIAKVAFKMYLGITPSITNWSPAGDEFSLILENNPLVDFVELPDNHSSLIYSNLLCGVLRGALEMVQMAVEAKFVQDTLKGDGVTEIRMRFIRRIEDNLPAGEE
UniProt Q12931: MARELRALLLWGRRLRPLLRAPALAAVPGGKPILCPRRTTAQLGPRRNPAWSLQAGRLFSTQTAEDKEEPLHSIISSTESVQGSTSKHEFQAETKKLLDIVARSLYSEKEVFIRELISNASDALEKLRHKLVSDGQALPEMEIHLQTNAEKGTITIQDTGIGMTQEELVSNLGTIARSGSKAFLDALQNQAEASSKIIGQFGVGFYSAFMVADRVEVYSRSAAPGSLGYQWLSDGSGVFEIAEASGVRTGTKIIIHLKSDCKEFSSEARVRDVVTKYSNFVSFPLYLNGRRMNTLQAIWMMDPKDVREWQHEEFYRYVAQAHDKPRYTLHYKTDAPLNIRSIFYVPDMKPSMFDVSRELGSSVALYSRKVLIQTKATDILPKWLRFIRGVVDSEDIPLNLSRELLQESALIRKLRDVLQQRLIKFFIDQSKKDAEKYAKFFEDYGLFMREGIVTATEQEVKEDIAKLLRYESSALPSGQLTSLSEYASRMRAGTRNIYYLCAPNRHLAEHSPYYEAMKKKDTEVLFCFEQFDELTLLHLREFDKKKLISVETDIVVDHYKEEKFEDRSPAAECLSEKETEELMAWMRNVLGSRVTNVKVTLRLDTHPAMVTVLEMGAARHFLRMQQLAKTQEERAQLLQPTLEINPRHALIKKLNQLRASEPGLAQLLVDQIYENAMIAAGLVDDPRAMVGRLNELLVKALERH
UniProt Q8N0Z6: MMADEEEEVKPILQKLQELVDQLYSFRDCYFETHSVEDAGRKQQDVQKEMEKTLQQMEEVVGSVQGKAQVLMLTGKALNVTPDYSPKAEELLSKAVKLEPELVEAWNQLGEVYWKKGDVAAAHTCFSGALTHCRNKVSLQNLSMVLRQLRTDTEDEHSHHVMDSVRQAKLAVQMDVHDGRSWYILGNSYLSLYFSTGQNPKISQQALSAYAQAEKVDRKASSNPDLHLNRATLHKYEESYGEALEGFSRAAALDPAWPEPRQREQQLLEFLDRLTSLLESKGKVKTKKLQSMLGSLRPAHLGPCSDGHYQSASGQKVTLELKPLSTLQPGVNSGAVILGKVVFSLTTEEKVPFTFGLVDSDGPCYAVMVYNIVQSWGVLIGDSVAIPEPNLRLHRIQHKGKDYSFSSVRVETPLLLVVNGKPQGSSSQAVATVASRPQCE
UniProt O14545: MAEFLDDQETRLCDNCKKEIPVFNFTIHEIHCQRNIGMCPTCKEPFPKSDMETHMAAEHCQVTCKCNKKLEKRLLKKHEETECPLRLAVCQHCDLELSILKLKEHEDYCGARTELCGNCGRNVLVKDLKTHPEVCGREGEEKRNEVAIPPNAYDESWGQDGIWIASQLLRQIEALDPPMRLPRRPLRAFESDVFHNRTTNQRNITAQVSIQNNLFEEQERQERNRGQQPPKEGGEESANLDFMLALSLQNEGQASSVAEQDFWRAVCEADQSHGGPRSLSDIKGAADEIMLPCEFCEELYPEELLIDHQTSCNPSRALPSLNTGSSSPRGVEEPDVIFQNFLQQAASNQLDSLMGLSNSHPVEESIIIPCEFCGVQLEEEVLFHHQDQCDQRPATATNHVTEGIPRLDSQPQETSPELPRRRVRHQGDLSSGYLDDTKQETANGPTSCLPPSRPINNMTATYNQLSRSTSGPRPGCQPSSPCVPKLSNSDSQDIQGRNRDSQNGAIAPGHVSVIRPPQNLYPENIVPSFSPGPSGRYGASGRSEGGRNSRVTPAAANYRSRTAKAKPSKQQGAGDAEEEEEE
UniProt Q8NG68: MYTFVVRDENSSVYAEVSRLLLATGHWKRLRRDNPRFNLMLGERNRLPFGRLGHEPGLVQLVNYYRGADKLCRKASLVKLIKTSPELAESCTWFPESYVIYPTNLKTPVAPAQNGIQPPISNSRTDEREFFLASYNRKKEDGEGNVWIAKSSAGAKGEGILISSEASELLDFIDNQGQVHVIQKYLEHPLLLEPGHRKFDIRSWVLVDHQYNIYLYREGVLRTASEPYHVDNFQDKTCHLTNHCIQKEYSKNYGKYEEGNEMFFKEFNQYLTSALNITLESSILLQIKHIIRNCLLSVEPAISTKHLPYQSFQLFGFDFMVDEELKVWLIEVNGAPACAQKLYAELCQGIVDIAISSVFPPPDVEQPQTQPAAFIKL
UniProt Q15629: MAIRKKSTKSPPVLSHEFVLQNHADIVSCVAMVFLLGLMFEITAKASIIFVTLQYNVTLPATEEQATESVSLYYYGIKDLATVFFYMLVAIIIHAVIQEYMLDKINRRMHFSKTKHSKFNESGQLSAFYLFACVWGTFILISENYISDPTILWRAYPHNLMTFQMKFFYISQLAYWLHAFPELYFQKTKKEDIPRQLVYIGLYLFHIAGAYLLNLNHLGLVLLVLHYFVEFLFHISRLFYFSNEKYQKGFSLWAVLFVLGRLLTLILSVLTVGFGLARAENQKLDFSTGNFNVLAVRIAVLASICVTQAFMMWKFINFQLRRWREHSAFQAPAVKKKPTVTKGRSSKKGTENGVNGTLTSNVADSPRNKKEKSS
UniProt Q9Y5R8, whole entry, looked up: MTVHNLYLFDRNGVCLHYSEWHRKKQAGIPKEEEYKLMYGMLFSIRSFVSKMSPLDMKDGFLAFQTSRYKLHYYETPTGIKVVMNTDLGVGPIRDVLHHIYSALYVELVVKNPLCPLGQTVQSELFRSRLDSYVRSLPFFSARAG
UniProt Q9UNY4: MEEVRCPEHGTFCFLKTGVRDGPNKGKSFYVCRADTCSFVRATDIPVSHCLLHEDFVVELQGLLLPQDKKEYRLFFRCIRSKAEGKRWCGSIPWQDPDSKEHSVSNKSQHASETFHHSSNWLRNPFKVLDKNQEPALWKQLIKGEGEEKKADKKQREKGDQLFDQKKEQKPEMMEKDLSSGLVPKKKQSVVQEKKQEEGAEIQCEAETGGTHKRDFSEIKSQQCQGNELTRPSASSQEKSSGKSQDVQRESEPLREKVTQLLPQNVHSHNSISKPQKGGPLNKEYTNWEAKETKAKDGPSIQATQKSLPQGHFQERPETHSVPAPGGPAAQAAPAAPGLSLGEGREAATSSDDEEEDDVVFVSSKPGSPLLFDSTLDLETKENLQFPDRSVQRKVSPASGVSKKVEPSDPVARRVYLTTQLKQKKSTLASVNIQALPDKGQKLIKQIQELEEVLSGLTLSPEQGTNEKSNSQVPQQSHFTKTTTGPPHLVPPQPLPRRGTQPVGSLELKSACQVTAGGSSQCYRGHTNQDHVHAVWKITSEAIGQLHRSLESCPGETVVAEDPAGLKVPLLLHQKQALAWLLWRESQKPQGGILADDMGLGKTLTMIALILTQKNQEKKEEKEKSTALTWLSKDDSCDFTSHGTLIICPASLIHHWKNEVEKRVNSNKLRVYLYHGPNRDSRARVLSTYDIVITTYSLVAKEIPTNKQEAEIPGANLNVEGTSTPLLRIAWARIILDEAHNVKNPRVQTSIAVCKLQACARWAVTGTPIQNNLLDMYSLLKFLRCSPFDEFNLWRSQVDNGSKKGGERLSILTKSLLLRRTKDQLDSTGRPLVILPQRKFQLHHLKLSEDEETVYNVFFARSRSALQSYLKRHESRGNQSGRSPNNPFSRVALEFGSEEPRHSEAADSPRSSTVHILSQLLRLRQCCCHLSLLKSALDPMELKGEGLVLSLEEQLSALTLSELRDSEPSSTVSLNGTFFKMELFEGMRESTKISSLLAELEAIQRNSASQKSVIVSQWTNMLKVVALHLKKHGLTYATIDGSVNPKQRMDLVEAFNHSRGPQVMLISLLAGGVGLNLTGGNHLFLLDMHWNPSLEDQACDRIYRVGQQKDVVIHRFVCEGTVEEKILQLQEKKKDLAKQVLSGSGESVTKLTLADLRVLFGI
UniProt Q99598: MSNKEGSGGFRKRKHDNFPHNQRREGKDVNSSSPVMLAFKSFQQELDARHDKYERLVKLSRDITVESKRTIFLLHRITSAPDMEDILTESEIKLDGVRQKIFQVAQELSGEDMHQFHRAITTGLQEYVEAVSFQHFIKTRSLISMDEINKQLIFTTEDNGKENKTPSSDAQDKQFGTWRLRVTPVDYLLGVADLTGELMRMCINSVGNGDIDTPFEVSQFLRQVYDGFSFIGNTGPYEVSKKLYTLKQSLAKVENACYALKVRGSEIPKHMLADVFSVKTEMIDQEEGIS
UniProt P49815: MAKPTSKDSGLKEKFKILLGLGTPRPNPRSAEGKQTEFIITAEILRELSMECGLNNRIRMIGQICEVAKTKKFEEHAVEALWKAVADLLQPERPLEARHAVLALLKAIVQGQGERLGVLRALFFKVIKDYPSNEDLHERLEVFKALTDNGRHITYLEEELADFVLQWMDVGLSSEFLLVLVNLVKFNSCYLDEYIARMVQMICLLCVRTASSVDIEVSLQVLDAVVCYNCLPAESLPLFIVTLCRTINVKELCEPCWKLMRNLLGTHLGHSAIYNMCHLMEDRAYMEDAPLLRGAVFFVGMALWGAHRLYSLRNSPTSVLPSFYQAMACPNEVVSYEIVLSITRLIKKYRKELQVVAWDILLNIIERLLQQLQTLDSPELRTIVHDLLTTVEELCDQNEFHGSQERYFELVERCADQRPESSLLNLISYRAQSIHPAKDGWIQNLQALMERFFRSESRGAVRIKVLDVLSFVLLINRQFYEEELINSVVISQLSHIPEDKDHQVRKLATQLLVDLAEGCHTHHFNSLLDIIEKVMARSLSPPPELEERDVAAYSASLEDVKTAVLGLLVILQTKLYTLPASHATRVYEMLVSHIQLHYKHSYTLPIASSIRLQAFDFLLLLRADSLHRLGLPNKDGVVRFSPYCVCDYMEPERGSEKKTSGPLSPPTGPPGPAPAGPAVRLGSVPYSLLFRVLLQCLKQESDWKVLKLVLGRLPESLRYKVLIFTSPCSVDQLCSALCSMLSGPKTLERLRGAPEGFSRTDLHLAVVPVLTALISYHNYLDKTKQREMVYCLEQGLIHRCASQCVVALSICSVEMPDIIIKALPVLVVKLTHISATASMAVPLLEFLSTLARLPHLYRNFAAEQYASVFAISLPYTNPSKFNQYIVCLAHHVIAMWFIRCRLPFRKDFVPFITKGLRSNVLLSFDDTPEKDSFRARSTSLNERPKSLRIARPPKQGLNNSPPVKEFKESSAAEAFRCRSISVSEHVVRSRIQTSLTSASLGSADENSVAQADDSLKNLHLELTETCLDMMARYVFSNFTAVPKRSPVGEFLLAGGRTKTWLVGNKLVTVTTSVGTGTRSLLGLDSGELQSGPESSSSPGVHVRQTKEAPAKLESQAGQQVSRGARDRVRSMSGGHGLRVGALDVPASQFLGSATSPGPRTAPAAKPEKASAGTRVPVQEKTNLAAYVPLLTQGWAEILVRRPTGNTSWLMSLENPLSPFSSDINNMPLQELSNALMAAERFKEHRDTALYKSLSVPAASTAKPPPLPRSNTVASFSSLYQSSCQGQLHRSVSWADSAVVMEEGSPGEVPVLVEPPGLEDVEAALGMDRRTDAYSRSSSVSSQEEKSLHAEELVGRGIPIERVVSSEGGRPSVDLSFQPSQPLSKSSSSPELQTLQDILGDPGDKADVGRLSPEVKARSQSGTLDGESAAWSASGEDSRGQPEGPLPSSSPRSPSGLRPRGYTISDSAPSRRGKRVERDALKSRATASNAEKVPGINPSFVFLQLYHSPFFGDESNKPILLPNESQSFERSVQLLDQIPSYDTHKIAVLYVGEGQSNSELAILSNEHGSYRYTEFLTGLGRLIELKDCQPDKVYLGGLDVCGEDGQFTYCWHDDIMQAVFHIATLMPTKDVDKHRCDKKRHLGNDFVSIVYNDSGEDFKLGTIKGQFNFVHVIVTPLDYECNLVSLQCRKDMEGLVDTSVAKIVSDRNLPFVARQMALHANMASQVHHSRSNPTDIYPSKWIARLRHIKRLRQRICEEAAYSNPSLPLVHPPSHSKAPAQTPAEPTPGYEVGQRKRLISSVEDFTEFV
UniProt Q12933: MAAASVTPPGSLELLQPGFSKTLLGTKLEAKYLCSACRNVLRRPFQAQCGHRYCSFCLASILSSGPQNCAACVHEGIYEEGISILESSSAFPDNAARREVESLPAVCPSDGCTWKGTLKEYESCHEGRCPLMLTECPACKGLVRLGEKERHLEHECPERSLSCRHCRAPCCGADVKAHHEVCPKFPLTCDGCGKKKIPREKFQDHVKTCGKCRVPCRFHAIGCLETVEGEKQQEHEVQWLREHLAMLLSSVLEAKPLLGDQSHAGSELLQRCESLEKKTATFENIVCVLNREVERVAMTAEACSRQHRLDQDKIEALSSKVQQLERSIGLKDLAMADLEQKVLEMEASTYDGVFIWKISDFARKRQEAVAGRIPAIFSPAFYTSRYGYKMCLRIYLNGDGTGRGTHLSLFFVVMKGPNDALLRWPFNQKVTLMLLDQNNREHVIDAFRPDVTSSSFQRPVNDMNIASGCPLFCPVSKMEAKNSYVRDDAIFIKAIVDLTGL

Columns and labels:
Test in all cases: log2 fold change, soluble protein after heating vs DMSO (PISA); higher = thermal stabilisation; K562 lysate, 10 uM; active = over 0.2 and 3.5 SD of the protein, either way, in both replicates (recomputed)
erlotinib = compound: C#Cc1cccc(Nc2ncnc3cc(OCCOC)c(OCCOC)cc23)c1 [erlotinib]
Outline: (§1)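 Log-two fold change in thermal stability relative to solvent controls is reported from duplicates. For each sample, crude K562 extract from dounce-homogenised pellets in PBS pH 7.4 with 1 mM MgCl2, at 1 mg/mL protein, was treated with 10 μM compound for 30 min. Aliquots heated for 3 min across 48°C-58°C were pooled, brought to 0.5% NP-40 at 4°C and cleared at 21,000xg for 90 min. The supernatant was quantified by TMTpro 16plex LC-MS/MS with channel sums equalised.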

[1] = compound: C/C(=N\NC(=O)C1=CC(=CC=C1)S(=O)(=O)N2CCOCC2)/C3=C(C=CC(=C3)Cl)O
Outline: as §1

[2] = compound: C1=CC(=CC=C1C2=NC3=C(N2)C=C(C=C3)C(=O)N)OC4=CC=C(C=C4)Cl
Outline: as §1

[3] = compound: C1=CC2=C(C=CC(=C2)/C=C\3/C(=O)NC(=NCC4=CC=CS4)S3)N=C1
Outline: as §1

[4] = compound: C1=CC2=NC=CN=C2C=C1/C=C/3\C(=O)NC(=O)S3
Outline: as §1

[5] = compound: C1=CC=C(C=C1)C2=NC(=C(N2)C3=CC=NC=C3)C4=CC(=C(C=C4)Cl)O
Outline: as §1

[6] = compound: C1=CC=C2C(=C1)C3=NNC4=CC=CC(=C43)C2=O
Outline: as §1

[7] = compound: C1CCN(C1)C(=O)NC2=CC=CC(=C2)NC3=NC=C(C(=N3)NCCC4=CN=CN4)Br
Outline: as §1

[8] = compound: C1CN(CCC1(CC2=CC=C(C=C2)Cl)N)C3=NC=NC4=C3C=CN4
Outline: as §1

IRAK-1-4 Inhibitor I = compound: C1COCCN1CCN2C3=CC=CC=C3N=C2NC(=O)C4=CC(=CC=C4)[N+](=O)[O-] [IRAK-1-4 Inhibitor I]
Outline: as §1

Measured: log2 fold change

TSR3 (UniProt Q9UJK0)
inactive: erlotinib 0.032 | [1] -0.064 | [2] -0.029 | [3] 0.005 | [4] -0.036 | [5] 0.041 | [6] -0.019 | [7] 0.016 | [8] 0.004 | IRAK-1-4 Inhibitor I 0.015

TRAPPC3 (UniProt O43617)
inactive: erlotinib -0.046 | [1] -0.033 | [2] -0.04 | [3] 0.039 | [4] -0.003 | [5] -0.007 | [6] 0.021 | [7] 0.009 | [8] -0.014 | IRAK-1-4 Inhibitor I -0.032

TRAP1 (UniProt Q12931)
inactive: erlotinib -0.013 | [1] 0.007 | [2] -0.001 | [3] -0.041 | [4] 0.003 | [5] -0.005 | [6] 0.005 | [7] 0.009 | [8] -0.008 | IRAK-1-4 Inhibitor I -0.021

TTC5 (UniProt Q8N0Z6)
inactive: erlotinib -0.015 | [1] -0.089 | [2] -0.014 | [3] -0.034 | [4] 0.041 | [5] 0.022 | [6] 0.016 | [7] 0.017 | [8] 0.033 | IRAK-1-4 Inhibitor I -0.008

TRAPPC8 (UniProt Q9Y2L5)
inactive: erlotinib 0.016 | [1] 0.004 | [2] 0.015 | [3] -0.019 | [4] -0.024 | [5] -0.023 | [6] -0.03 | [7] -0.005 | [8] 0.007 | IRAK-1-4 Inhibitor I 0.004

TRAFD1 (UniProt O14545)
inactive: erlotinib 0.002 | [1] -0.062 | [2] 0.026 | [3] 0.026 | [4] 0.012 | [5] -0.062 | [6] 0.023 | [7] -0.018 | [8] -0.012 | IRAK-1-4 Inhibitor I 0

TTL (UniProt Q8NG68)
inactive: erlotinib 0.056 | [1] 0.01 | [2] 0 | [3] 0.019 | [4] -0.001 | [5] -0.027 | [6] 0.097 | [7] 0.006 | [8] -0.074 | IRAK-1-4 Inhibitor I 0.019

TSEN34 (UniProt Q9BSV6)
inactive: erlotinib 0.019 | [1] -0.055 | [2] 0.034 | [3] 0 | [4] 0.004 | [5] 0.02 | [6] -0.031 | [7] -0.039 | [8] -0.01 | IRAK-1-4 Inhibitor I 0.008

TSPAN14 (UniProt Q8NG11)
inactive: erlotinib 0.042 | [1] -0.034 | [2] -0.022 | [3] -0.005 | [4] 0.04 | [5] -0.003 | [6] -0.047 | [7] 0.006 | [8] 0.033 | IRAK-1-4 Inhibitor I -0.035

Two neighbouring records already listed, quoted:
TSEN34 (UniProt Q9BSV6)
inactive: erlotinib 0.019 | [1] -0.055 | [2] 0.034 | [3] 0 | [4] 0.004 | [5] 0.02 | [6] -0.031 | [7] -0.039 | [8] -0.01 | IRAK-1-4 Inhibitor I 0.008

TSPAN14 (UniProt Q8NG11)
inactive: erlotinib 0.042 | [1] -0.034 | [2] -0.022 | [3] -0.005 | [4] 0.04 | [5] -0.003 | [6] -0.047 | [7] 0.006 | [8] 0.033 | IRAK-1-4 Inhibitor I -0.035

Later entries.

TRAF6 (UniProt Q9Y4K3)
inactive: erlotinib -0.019 | [1] -0.068 | [2] 0.016 | [3] 0.033 | [4] -0.014 | [5] -0.021 | [6] -0.03 | [7] -0.017 | [8] -0.005 | IRAK-1-4 Inhibitor I -0.013

TRNT1 (UniProt Q96Q11)
inactive: erlotinib 0 | [1] -0.081 | [2] 0.03 | [3] 0.04 | [4] -0.036 | [5] -0.025 | [6] -0.007 | [7] 0.008 | [8] 0.012 | IRAK-1-4 Inhibitor I -0.015

TRAM1 (UniProt Q15629)
inactive: erlotinib -0.029 | [1] -0.065 | [2] -0.271 | [3] -0.012 | [4] 0.102 | [5] -0.039 | [6] -0.095 | [7] 0.002 | [8] 0.007 | IRAK-1-4 Inhibitor I 0.012

TRAPPC1 (UniProt Q9Y5R8)
inactive: erlotinib 0.017 | [1] 0.036 | [2] 0.055 | [3] 0.069 | [4] -0.104 | [5] -0.028 | [6] 0.011 | [7] 0.005 | [8] -0.01 | IRAK-1-4 Inhibitor I 0.01

TTF2 (UniProt Q9UNY4)
inactive: erlotinib 0.043 | [1] -0.003 | [2] 0.063 | [3] -0.001 | [4] -0.026 | [5] 0.042 | [6] -0.046 | [7] 0.039 | [8] 0.032 | IRAK-1-4 Inhibitor I -0.006

TTI1 (UniProt O43156)
inactive: erlotinib -0.017 | [1] 0.033 | [2] -0.049 | [3] 0.003 | [4] -0.012 | [5] -0.02 | [6] -0.003 | [7] -0.032 | [8] -0.037 | IRAK-1-4 Inhibitor I 0.015

TRAPPC10 (UniProt P48553)
inactive: erlotinib 0.066 | [1] 0.031 | [2] 0.027 | [3] 0.045 | [4] 0.018 | [5] 0.004 | [6] -0.058 | [7] 0.057 | [8] 0.005 | IRAK-1-4 Inhibitor I 0.013

TTC37 (UniProt Q6PGP7)
inactive: erlotinib 0.05 | [1] -0.148 | [2] 0.07 | [3] -0.014 | [4] -0.069 | [5] -0.187 | [6] -0.068 | IRAK-1-4 Inhibitor I 0.051

TSC22D4 (UniProt Q9Y3Q8)
inactive: erlotinib 0.008 | [1] 0.002 | [2] 0.021 | [3] 0.012 | [4] -0.014 | [5] -0.043 | [6] -0.02 | [7] -0.026 | [8] 0.022 | IRAK-1-4 Inhibitor I -0.005

TRIM32 (UniProt Q13049)
inactive: erlotinib 0.044 | [1] -0.022 | [2] 0.014 | [3] 0.122 | [4] 0.032 | [5] 0.025 | [6] 0 | [7] 0.047 | [8] 0.082 | IRAK-1-4 Inhibitor I -0.041

TRIT1 (UniProt Q9H3H1)
inactive: erlotinib -0.062 | [1] 0.04 | [2] -0.05 | [3] -0.028 | [4] 0.061 | [5] -0.008 | [6] -0.15 | [7] -0.023 | [8] 0.007 | IRAK-1-4 Inhibitor I 0.054

TSTD2 (UniProt Q5T7W7)
inactive: erlotinib 0.045 | [1] -0.11 | [2] -0.013 | [3] 0.177 | [4] 0.005 | [5] 0.15 | [6] 0.031 | IRAK-1-4 Inhibitor I -0.031

TRAPPC5 (UniProt Q8IUR0)
inactive: erlotinib 0 | [1] 0.019 | [2] -0.025 | [3] 0.037 | [4] -0.025 | [5] -0.05 | [6] -0.048 | [7] -0.018 | [8] -0.007 | IRAK-1-4 Inhibitor I -0.054

TSNAX (UniProt Q99598)
inactive: erlotinib -0.013 | [1] -0.015 | [2] 0.023 | [3] 0.003 | [4] -0.012 | [5] -0.004 | [6] 0.034 | [7] -0.005 | [8] 0.01 | IRAK-1-4 Inhibitor I 0.009

TSC2 isoform 4 (UniProt P49815)
inactive: erlotinib 0.089 | [1] 0.062 | [2] 0.045 | [3] -0.048 | [4] -0.011 | [5] 0.006 | [6] -0.08 | [7] 0.012 | [8] 0.018 | IRAK-1-4 Inhibitor I 0.001

TTC21B (UniProt Q7Z4L5)
inactive: erlotinib 0.17 | [1] 0.1 | [2] 0.082 | [3] -0.154 | [4] -0.08 | [6] -0.075 | [7] 0.017 | [8] 0.147

TRIM27 (UniProt P14373)
inactive: erlotinib 0.13 | [1] 0.05 | [2] 0.063 | [3] 0.031 | [4] 0.014 | [5] 0.208 | [6] 0.018 | IRAK-1-4 Inhibitor I 0.045

TSG101 (UniProt Q99816)
inactive: erlotinib 0.034 | [1] -0.059 | [2] -0.001 | [3] -0.023 | [4] 0.002 | [5] -0.009 | [6] -0.005 | [7] 0 | [8] 0.039 | IRAK-1-4 Inhibitor I -0.01

TRAF2 isoform 2 (UniProt Q12933)
inactive: erlotinib 0.026 | [1] -0.002 | [2] 0.008 | [3] 0.013 | [4] -0.016 | [5] -0.01 | [6] -0.015 | [7] -0.008 | [8] 0.029 | IRAK-1-4 Inhibitor I 0.033

TTC4 (UniProt O95801)
inactive: erlotinib 0.01 | [1] 0.013 | [2] 0.001 | [3] 0.003 | [4] 0.005 | [5] 0.007 | [6] -0.038 | [7] -0.029 | [8] 0.025 | IRAK-1-4 Inhibitor I -0.008

TRIP4 (UniProt Q15650)
inactive: erlotinib -0.009 | [1] 0.027 | [2] 0.014 | [3] 0.043 | [4] -0.039 | [5] 0.051 | [6] -0.092 | [7] -0.008 | [8] -0.005 | IRAK-1-4 Inhibitor I -0.002
